According to patent US20210095036A1:
Results are given in words; binding and its absence hold for the method and conditions named. Some entries that bind do so weakly or less than the wild type.

The chains behind the UniProt entries cited, without tags or fusion partners. Where a name states a change or a piece, a line headed by the entry shows the natural chain unless it says otherwise.
UniProt P01732: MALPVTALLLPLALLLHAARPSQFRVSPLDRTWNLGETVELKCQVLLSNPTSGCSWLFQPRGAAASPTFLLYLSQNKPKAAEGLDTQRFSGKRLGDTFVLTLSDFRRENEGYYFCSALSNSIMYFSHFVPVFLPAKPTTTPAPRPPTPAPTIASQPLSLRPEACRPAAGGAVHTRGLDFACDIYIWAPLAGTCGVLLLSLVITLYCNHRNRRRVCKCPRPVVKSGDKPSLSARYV

What follows are substances tested against GFRα4 isoform b (GFRα4b), Fc fusion (human) (assay: flow cytometry of CAR T cells stained with Fc-fusion antigen and anti-human Fc-specific antibodies (FIG. 19C)).
In the case of “CAR-14 (from UniProt P01732 183-206; Q07011 214-255; P20963 52-163)”, the binding is reported as “binds”. In the case of “CAR-25 (from UniProt P01732 183-206; Q07011 214-255; P20963 52-163)”, the binding is reported as “binds”. “CAR-29 (from UniProt P01732 183-206; Q07011 214-255; P20963 52-163)” was tested, and the binding was “binds”. For “CAR-10 (from UniProt P01732 183-206; Q07011 214-255; P20963 52-163)”, the binding was “binds”.
